Measured data: PubChem BioAssay AID1259405 (NCATS, 2018)
The whole screen tested about 50,000 reagents; this is a part drawn at random. Over the whole deposit, about 4,000 (8%) were called active. 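Mouse siRNA library applied to hamster cells; one well for each siRNA.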 Unmarked entries are inactive. Reagents against one gene are numbered here. Not all columns of the deposit are shown.

Screen: 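Mouse-designed siRNAs used to find CHO productivity engineering targets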 (primary screen)
Cell system: Chinese hamster CHO-K1 ovary cells with stable secreted eGFP expression
Reagent: single siRNA against mouse genes, 0.8 pmol siRNA per well (2 µl of 400 nM stock)
Time to read-out: 3 days
Detection: 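Percent of the per-plate non-targeting control median for intracellular GFP per well by laser scanning cytometry and for cell viability by ATP luminescence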
Scale: GFP, % of control: higher = more GFP per well, higher productivity
Call rule: 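Called active when intracellular GFP, relative to negative control, is at or above 120%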

GFP, % of control, by gene and reagent
Ryr2: #1 92.1; #2 48.3; #3 89.9
Avp: #1 65.9; #2 62.5; #3 92
Glo1: #1 71.5; #2 63.2; #3 78.5
Rdx: #1 64.1; #2 104
Polr1f: #1 62; #2 88.8; #3 92.2
Mbd4: #1 65.9; #2 54.8; #3 154 (active)
Ddo: #1 52.3; #2 89.4; #3 116
Dzank1: #1 85; #2 29.4; #3 73.9
Tra2b: #1 79.5; #2 70.5
Agfg1: #1 129 (active); #2 132 (active); #3 49.6
Or52z12: #1 66.4; #2 81.1; #3 74.2
Rars1: #1 147 (active); #2 80
Eif3g: #1 88.3; #2 90.2; #3 29.8
Tekt3: #1 77.3; #2 83.2
Utp23: #1 77.7; #2 113; #3 111
Ighg3: #1 40.9; #2 61.4; #3 116
Cc2d1a: #1 47.9; #2 87.5; #3 151 (active)
Cbl: #1 86.3; #2 105; #3 113
Rft1: #1 62.7; #2 59.6; #3 77
Wdr19: #1 101; #2 104; #3 88.8
Pinx1: #1 82.3; #2 49.4

Records listed above called active:
GFP, % of control, by gene and reagent
Mbd4: #3 154 (active)
Agfg1: #1 129 (active); #2 132 (active)
Rars1: #1 147 (active)
Cc2d1a: #3 151 (active)
